# Patent publication US20150374767A1, “Treatment of Cancer” (priority 2013, published 2015)
# Test system: Virttu cell line panel
# Assay: cells
# Format: cell-based
# Details: Homo sapiens, A-431, 72 h, read-out: IC50 (DCP leakage), range
smiles,measurement,value
"COc1cc2ncnc(Nc3ccc(F)c(Cl)c3)c2cc1OCCCN1CCOCC1 [Gefitinib, N-(3-chloro-4-fluoro-phenyl)-7-methoxy-6-(3-morpholin-4-ylpropoxy)quinazolin-4-amine]",IC50,4 to 30 µM
